Measurements from publication PMC6942356.

Target: T1, TSPAN9 (endogenous, 5-FU-resistant gastric cancer cells) (human (endogenous in AGS/R)) (UniProt O75954)
T1 sequence: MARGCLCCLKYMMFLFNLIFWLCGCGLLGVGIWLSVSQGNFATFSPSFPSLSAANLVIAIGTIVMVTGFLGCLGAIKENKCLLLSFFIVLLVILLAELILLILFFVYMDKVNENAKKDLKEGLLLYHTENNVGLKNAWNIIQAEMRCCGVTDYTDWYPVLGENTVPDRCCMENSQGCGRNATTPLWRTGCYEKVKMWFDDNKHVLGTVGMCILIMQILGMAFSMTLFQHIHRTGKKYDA
Assay: affinity purification with mass spectrometry; endogenous TSPAN9 complex from drug-resistant cells; immunoprecipitate separated by SDS-PAGE, silver stained, LC-MS/MS

binding: binds
Substance: PIK3R3 (p55), regulatory subunit of PI3K (from UniProt Q92569 1-461)

Results are given in words; binding and its absence hold for the method and conditions named. Binding seen in cells or lysates may run through a third protein. Here binding means that the protein was enriched with, or labelled near, the bait; the list need not be complete.
